These are yes or no findings as the source states them, for the method shown. Binding seen in cells or lysates may run through a third protein. Some results given as binding are weak or reduced against the parent protein; the word gives no strength.

Chains of the proteins cited; added tags and fusions are not shown.
UniProt O95819: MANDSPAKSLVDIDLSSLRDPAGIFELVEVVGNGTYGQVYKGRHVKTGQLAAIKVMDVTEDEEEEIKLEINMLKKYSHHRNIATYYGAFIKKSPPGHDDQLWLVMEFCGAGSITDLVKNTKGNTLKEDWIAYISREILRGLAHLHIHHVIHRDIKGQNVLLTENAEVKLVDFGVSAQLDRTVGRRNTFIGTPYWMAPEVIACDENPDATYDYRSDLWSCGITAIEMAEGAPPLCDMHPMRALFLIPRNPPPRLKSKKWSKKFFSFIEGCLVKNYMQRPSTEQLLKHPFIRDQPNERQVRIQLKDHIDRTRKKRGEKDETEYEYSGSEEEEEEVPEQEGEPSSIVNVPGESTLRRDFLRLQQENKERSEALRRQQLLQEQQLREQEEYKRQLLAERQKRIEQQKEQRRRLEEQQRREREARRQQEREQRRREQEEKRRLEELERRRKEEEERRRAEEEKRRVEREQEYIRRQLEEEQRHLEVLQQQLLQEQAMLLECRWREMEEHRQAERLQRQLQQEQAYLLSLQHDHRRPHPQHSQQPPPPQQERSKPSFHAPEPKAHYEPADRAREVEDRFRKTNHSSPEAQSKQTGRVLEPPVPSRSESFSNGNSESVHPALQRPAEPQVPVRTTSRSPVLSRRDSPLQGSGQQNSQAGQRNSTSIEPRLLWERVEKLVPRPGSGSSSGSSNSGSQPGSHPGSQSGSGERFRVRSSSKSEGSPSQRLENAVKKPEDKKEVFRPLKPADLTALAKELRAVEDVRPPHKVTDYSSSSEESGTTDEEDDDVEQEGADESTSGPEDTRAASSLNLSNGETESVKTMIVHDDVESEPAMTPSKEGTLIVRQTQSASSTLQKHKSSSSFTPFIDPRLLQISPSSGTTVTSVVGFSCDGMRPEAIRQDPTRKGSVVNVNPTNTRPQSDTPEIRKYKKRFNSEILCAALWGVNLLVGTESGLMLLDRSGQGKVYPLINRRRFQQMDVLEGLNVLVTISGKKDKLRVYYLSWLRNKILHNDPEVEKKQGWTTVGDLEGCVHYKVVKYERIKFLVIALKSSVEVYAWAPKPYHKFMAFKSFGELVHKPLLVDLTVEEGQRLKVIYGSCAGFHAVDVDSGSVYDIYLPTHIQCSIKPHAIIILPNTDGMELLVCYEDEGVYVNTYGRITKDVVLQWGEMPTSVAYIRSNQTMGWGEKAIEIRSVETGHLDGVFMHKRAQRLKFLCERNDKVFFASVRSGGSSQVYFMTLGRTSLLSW

The target of the assay is T1, Hyaluronan mediated motility receptor (HMMR) (human (endogenous in A549, H1299)) (UniProt O75330).
T1 sequence: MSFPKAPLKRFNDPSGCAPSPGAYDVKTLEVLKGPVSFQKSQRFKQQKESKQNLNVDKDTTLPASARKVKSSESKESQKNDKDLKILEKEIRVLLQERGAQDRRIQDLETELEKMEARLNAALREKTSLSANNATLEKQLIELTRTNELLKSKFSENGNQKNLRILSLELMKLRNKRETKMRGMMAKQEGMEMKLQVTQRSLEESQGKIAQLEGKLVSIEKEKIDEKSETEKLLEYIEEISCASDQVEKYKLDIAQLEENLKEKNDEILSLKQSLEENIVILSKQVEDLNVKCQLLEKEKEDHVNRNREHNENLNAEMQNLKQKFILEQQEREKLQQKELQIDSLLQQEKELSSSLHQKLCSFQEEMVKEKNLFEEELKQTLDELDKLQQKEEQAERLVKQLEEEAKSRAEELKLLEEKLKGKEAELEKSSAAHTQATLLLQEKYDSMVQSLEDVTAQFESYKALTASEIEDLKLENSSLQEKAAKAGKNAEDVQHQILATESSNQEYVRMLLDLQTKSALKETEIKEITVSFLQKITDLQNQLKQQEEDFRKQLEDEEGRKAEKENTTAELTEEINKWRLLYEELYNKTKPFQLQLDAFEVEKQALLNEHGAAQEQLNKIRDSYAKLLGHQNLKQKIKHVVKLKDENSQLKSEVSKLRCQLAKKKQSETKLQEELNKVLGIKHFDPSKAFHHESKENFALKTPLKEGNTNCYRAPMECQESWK
Nature of the assay: co-IP; endogenous co-IP from A549 or H1299 lysate (IP lysis buffer with phosphatase and protease inhibitors), overnight with IgG or specific antibodies, protein A/G magnetic beads, 4°C, Western blot. Background: A western blot detects proteins with antibodies after separation by electrophoresis.

As for “Mitogen-activated protein kinase kinase kinase kinase 4 (MAP4K4) (from UniProt O95819 1-1239)”, the binding result is listed as “binds”.
